# Among all 360,000 compounds or so, about 7,500 (2.1%) were called active. The shares of active, inactive and inconclusive entries below differ from those in the screen. The call rests on the fitted dose curve; in most records, active means well fitted inhibition curve with a large enough effect; inconclusive means small, poorly fitted or top-dose-only effect, or effect the other way; inactive means flat fitted curve, though single readings scatter. Potencies beside an inconclusive call are fits to weak or partial responses and may not hold up.
# Assay: Nrf2 qHTS screen for inhibitors; further: nearly all actives have a fitted effect of over 60% in size
# Conditions: A549 ARE-Fluc reporter, luciferase luminescence, 18-24 h; series mostly up to 46 µM
# Method in brief: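 Nrf2 activity is the BugLite luminescence, read 15 min after reagent at room temperature, following CellTiter-Fluor cytotoxicity readout (30 min, 37C). Compound titrations were applied for 18-24 h to 5000 A549 ARE_Fluc cells/well in 5% FBS OPTI-MEM.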
# Potency means the concentration at half of the fitted maximal effect.
row,Compound,Potency
1,O=C1COc2ccc(S(=O)(=O)CCC(=O)N3CCN(c4cccc(Cl)c4)CC3)cc2N1,"inconclusive: 5.8 µM [activator, single point]"
2,O=C(NCCOc1ccccc1)c1cc2ccccc2o1,"inconclusive: 3.55 µM [activator, full curve]"
3,COc1ccc(N2CC(C(=O)Nc3ccc(S(=O)(=O)N4CCOCC4)cc3)CC2=O)cc1 (stereo unspecified),"inconclusive: 16.4 µM [falling, partial curve, poor fit]"
4,NC(=O)NC(=O)COC(=O)c1ccc(Cl)c(S(=O)(=O)N(Cc2ccccc2)c2ccc(Cl)cc2)c1,"inconclusive: 25.9 µM [falling, single point]"
5,COc1ccccc1OCc1ccc(C(=O)N(C)C)o1,"inconclusive: 5.8 µM [activator, full curve]"
6,COc1cccc(N/C=C/C(=O)c2ccc(Br)cc2)c1,"inconclusive: 23.1 µM [activator, partial curve, poor fit]"
7,COc1ccc(C2=NC3(CCCCCC3)N(CC(=O)Nc3cccc(Cl)c3)C2=O)cc1,"inconclusive: 20.6 µM [falling, single point]"
8,CCCCCCCCNS(=O)(=O)CCNCc1ccccc1OC,inactive
9,Nc1nc(SCC(=O)N2CCCc3ccccc32)n[nH]1,"inconclusive: 2.31 µM [falling, partial curve, poor fit]"
10,Cc1ccc(NC(=O)c2ccc(C)cc2)cc1,"inconclusive: 0.231 µM [activator, full curve, poor fit]"
11,Cc1nn(CC(=O)NC2CCC(C)CC2)c(C)c1[N+](=O)[O-] (stereo unspecified),"inconclusive: 0.116 µM [falling, full curve, poor fit]"
12,COc1cccc(CNC(=O)c2cccc(S(=O)(=O)N3CCN(c4ccc(F)cc4)CC3)c2)c1,"inconclusive: 2.59 µM [falling, full curve]"
13,Cc1cccc(NC(=O)c2n[nH]c([N+](=O)[O-])c2Br)c1C,"inconclusive: 0.92 µM [activator, partial curve]"
14,C(=C\c1nccc2c1[nH]c1ccccc12)/c1ccccc1,"inconclusive: 16.4 µM [activator, partial curve, poor fit]"
15,O=C(CC1S/C(=N/N=C/c2cccs2)NC1=O)Nc1ccc(Cl)c(Cl)c1 (stereo unspecified),"inconclusive: 23.1 µM [falling, partial curve, poor fit]"
16,COc1ccc(CN(C)C(=O)c2ccccc2Sc2ccccc2C#N)cc1OC,"inconclusive: 13 µM [falling, partial curve, poor fit]"
17,Cc1ccc(NC(=O)C(=O)NCC2CCCO2)cc1 (stereo unspecified),"inconclusive: 3.66 µM [activator, full curve]"
18,Cc1cccc(NS(=O)(=O)c2cc(C(=O)NCCC3=CCCCC3)ccc2Cl)c1,"inconclusive: 29.1 µM [falling, single point]"
19,CCOc1ccc(-c2nnc(SCC(=O)Nc3cc(C)on3)o2)cc1,active: 14.6 µM
20,Cc1ccnc(NC(=O)CNC(=O)c2ccc3ccccc3c2)c1,"inconclusive: 18.4 µM [activator, partial curve]"
21,COc1ccccc1NS(=O)(=O)c1ccc(C(=O)NCc2ccco2)cc1,"inconclusive: 14.6 µM [falling, partial curve]"

row,Compound,Potency
1,O=C(Nc1ccc(Cl)c(Cl)c1)c1ccc(Cn2cc(Cl)cn2)cc1,"inconclusive: 23.1 µM [falling, single point]"
2,COc1ccc(-c2nc3ccccc3o2)cc1NC(=O)c1ccc(-c2ccc(Br)cc2)o1,inactive
3,O=C(NCc1cccs1)c1cc(S(=O)(=O)N2CCOCC2)c(Cl)cc1Cl,"inconclusive: 23.1 µM [falling, single point]"
4,CC(OC(=O)c1ccc2c(c1)OCO2)C(=O)NC1CCCCC1C (stereo unspecified),"inconclusive: 16.4 µM [falling, single point]"
5,CCCN1CNc2c(c(=O)[nH]c(=S)n2CCc2ccc(C)cc2C)C1,inactive
6,CCOc1ccc(NC(=O)C(c2ccccn2)N(C(=O)CCl)c2ccc(OC)cc2)cc1 (stereo unspecified),inactive
7,COC(=O)c1c(-c2cc(C)ccc2C)csc1NC(=O)C1CC=CCC1C(=O)O (stereo unspecified),inactive
8,Fc1ccc(-n2nnc(-c3ccnc4ccccc34)n2)cc1,"inconclusive: 9.2 µM [activator, partial curve]"
9,CCCCc1nn2c(=O)cc(COC(=O)c3ccco3)nc2s1,"inconclusive: 4.11 µM [falling, single point]"
10,O=C(N/N=C/c1ccc2c(c1)OCO2)c1cccc2ccccc12,"inconclusive: 23.1 µM [activator, partial curve]"
11,COc1ccc(-c2cc(-c3c(O)c(OC)c4occc4c3OC)[nH]n2)cc1OC,active: 13 µM
12,C=CCn1c(SCC(=O)NC2CCS(=O)(=O)C2)nnc1-c1ccc(Cl)cc1 (stereo unspecified),"inconclusive: 18.4 µM [falling, single point]"
13,CSCCC(NC(=O)c1ccc(Cl)cc1Cl)C(=O)N(C)Cc1nc2ccccc2c(=O)[nH]1 (stereo unspecified),"inconclusive: 0.13 µM [activator, full curve, poor fit]"
14,COc1cc(OC)cc(-c2cc(N)n(S(=O)(=O)c3cccc4nsnc34)n2)c1,"inconclusive: 29.1 µM [falling, single point]"
15,CC(=O)OCC(NC(=O)C(C)NC(=O)OC(C)(C)C)C1OC(n2ccc(=O)[nH]c2=O)C(OC(C)=O)C1OC(C)=O (stereo unspecified),"inconclusive: 0.0058 µM [falling, full curve, poor fit]"
16,COc1ccc(NC(=O)c2cc3nc(-c4ccccc4)cc(C)n3n2)cc1OC,"inconclusive: 23.1 µM [falling, single point]"
17,COc1ccc(/C=C(\C)c2nc(C)c(-c3ccccc3)c(=O)[nH]2)cc1,"inconclusive: 23.1 µM [activator, single point]"
18,c1ccc(-c2noc(-c3ccco3)n2)nc1,"inconclusive: 1.46 µM [activator, full curve, poor fit]"
19,C/C(=N\Nc1nc(C)cc(-c2ccccc2)n1)c1ccccc1,inactive
20,Cn1nc(-c2ccc(OCC(=O)Nc3ccc(Cl)cc3)cc2)c2ccccc2c1=O,"inconclusive: 29.1 µM [falling, single point]"

# Grouped by structure, the compounds so far containing fluorine
row,Compound,Potency
12,COc1cccc(CNC(=O)c2cccc(S(=O)(=O)N3CCN(c4ccc(F)cc4)CC3)c2)c1,"inconclusive: 2.59 µM [falling, full curve]"
8,Fc1ccc(-n2nnc(-c3ccnc4ccccc34)n2)cc1,"inconclusive: 9.2 µM [activator, partial curve]"
